Measurements reported in PMC9943670.
For at least one entry, the source does not settle the construct or the ends of the probe. For part of these data: A weaker result is weaker than the reference pair of the same experiment. For part of these data: At least one verdict rests on a figure or table, not on a statement of the authors. For part of these data: Protein sequences can lack the tags named with them. For part of these data: Results from cells or extracts need not show a direct contact.

Chains of the proteins cited; added tags and fusions are not shown. A line that says so, or that is headed by a name, gives the form on record, which may keep a tag or linker.
UniProt P20263, other isoform, or with tags, fused parts or gaps: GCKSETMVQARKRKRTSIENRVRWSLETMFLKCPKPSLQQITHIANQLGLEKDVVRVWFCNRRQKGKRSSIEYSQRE
UniProt P20263, whole entry: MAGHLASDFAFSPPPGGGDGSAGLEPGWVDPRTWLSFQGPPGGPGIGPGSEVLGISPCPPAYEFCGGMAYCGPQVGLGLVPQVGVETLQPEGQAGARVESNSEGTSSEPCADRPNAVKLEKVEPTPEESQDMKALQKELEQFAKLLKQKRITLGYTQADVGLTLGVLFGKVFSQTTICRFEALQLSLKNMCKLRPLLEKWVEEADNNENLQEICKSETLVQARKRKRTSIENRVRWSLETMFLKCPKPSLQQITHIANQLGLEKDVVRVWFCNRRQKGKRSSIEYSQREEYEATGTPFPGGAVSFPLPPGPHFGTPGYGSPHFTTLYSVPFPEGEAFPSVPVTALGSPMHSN

Tests used:
Oct4 POUHD (mouse) = Oct4 POUHD (mouse) (UniProt P20263); assay: EMSA; conditions: EMSA buffer composition not given, 1 h at RT, gels in 1x TG, 200 V, 4 C, probes annealed in 20 mM Tris-HCl pH 8.0, 50 mM MgCl2, 50 mM KCl, recombinant protein, protein details: tag cleaved by TEV (leaves G)
Brn2 POU (mouse) [1] = target: T1, Brn2 POU (mouse) (UniProt P31360); assay: EMSA (single-tube dual color); conditions: FAM-CpGpal with Cy5-MORE, strong preference for MORE; 5mC at the central CpG (ATG5mCGCAT), both strands; EMSA buffer composition not given; 1 h at RT; gels in 1x TG, 200 V, 4 C; probes annealed in 20 mM Tris-HCl pH 8.0, 50 mM MgCl2, 50 mM KCl; recombinant protein; protein details: tag cleaved by TEV (leaves G); label: 5' Cy5 or FAM on forward strand
T1 sequence: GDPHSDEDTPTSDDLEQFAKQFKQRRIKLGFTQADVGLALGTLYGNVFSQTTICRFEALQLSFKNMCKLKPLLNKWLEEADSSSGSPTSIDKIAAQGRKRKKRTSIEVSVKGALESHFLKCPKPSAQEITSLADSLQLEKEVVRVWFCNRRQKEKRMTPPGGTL

Brn2 POU (mouse) [2] = target: T1, Brn2 POU (mouse); assay: EMSA; conditions: 50 nM DNA, 10-500 nM protein, mainly monomer, dimer strongly reduced, negative cooperativity, EMSA buffer composition not given, 1 h at RT, gels in 1x TG, 200 V, 4 C, probes annealed in 20 mM Tris-HCl pH 8.0, 50 mM MgCl2, 50 mM KCl, recombinant protein, protein details: tag cleaved by TEV (leaves G)
3xFlag-Oct4 full length = 3xFlag-Oct4 full length (UniProt P20263); assay: EMSA; conditions: HEK293T whole-cell extract, dimer, EMSA buffer composition not given, 1 h at RT, gels in 1x TG, 200 V, 4 C, probes annealed in 20 mM Tris-HCl pH 8.0, 50 mM MgCl2, 50 mM KCl, protein in a lysate after overexpression, protein details: 3xFlag
GFP-Oct4 full length = GFP-Oct4 full length (UniProt P20263); assay: EMSA; conditions: 50 nM DNA, 25-800 nM protein, dimer, methylation state not stated; EMSA buffer composition not given; 1 h at RT; gels in 1x TG, 200 V, 4 C; probes annealed in 20 mM Tris-HCl pH 8.0, 50 mM MgCl2, 50 mM KCl; recombinant protein; protein details: GFP, Ni-affinity purified; label: 5' Cy5 on forward strand
[3] = 5mC at the central CpG (ATG5mCGCAT), both strands, label: 5' Cy5 or FAM on forward strand
[4] = label: 5' Cy5 on forward strand
[5] = AT mutation affects overall binding and dimer formation, label: 5' FAM on forward strand

GAATCATATGCGCATAAGAATG (double strand) [CpGpal genomic (Zfp957)]
binding result (Oct4 POUHD (mouse); genomic element, methylation state not stated, label: 5' Cy5 or FAM on forward strand): binds

GCCGCCTTATGCGCATAAGCCGCCGC (double strand) [CpGpal fully methylated]
binding result (Brn2 POU (mouse) [1]): binds more weakly | binding result (Brn2 POU (mouse) [2]; [3]): binds | binding result (3xFlag-Oct4 full length; [3]): binds

GCCGCCTTATGCGCATAAGCCGCCGC (double strand) [CpGpal unmethylated]
binding result (Brn2 POU (mouse) [2]; [4]): binds | binding result (3xFlag-Oct4 full length; [4]): binds | binding result (GFP-Oct4 full length): binds

GCCGCCTTATGCGCGTAAGCCGCCGC (double strand) [CpGpal Mutant 2]
binding result (Oct4 POUHD (mouse); [5]): binds more weakly

GCCGCCTTGTGCGCATAAGCCGCCGC (double strand) [CpGpal Mutant 1]
binding result (Oct4 POUHD (mouse); [5]): binds more weakly
